# According to PubChem BioAssay (Tox21):
# The chains behind the UniProt entries cited, without tags or fusion partners. Where a name states a change or a piece, a line headed by the entry shows the natural chain unless it says otherwise.
# UniProt P28223, whole entry, looked up: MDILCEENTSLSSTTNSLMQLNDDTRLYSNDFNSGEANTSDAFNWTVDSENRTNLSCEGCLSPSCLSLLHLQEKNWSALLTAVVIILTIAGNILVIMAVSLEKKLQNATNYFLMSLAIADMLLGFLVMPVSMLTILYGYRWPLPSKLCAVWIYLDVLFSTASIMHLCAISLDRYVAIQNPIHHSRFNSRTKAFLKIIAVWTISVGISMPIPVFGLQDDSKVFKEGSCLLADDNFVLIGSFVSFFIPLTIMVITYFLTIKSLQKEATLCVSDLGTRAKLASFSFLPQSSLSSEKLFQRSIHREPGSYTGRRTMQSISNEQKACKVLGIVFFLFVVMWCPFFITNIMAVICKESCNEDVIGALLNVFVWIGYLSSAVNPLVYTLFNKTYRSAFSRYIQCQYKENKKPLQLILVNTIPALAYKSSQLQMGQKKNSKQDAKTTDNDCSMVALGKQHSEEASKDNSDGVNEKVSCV
# UniProt P11229: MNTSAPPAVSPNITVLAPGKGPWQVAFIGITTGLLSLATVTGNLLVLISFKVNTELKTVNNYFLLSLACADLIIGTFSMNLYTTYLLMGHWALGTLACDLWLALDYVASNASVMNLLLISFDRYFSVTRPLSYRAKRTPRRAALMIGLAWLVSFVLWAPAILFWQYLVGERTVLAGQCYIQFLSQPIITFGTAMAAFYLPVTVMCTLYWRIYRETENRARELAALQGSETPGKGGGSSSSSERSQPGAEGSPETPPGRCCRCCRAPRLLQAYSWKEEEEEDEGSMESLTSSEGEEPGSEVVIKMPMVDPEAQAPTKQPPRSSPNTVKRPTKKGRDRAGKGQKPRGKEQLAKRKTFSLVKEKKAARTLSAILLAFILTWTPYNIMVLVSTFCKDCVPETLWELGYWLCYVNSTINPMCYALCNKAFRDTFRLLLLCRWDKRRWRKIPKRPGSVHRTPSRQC
# UniProt P14416, whole entry, looked up: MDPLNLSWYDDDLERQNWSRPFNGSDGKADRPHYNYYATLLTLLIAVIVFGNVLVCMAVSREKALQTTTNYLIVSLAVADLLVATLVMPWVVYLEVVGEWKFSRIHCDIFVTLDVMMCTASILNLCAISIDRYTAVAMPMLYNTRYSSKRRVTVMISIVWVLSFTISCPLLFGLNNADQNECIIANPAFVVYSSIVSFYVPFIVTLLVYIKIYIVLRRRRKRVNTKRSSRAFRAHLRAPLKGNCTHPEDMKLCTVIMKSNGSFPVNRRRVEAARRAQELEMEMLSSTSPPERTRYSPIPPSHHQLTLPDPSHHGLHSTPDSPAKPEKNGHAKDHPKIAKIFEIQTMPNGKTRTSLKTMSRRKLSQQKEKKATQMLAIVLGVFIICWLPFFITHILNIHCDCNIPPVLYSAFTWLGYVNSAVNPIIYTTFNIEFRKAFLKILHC
# Values joined by “and” are separate entries in the source; they are usually repeats but may differ in a detail not shown here. Equal values may be shown once. The shares of active, inactive and inconclusive entries below differ from those in the screen. For some of these results: Potencies of inconclusive entries are doubtful fits and often do not repeat. Active and inactive are the calls of the source. Unless noted, calls come from the whole dose curve.
# Assays:
# [1] = p53 small molecule agonists, cell-based qHTS assay with human liver microsomes (AID 1963577); conditions: HCT-116 p53RE-bla with human liver microsomes, ratio, 16 h; activation: at 66 µM (top of the series) unless noted; note: potency is the fitted concentration of half-maximal effect;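 for activation: p53 response element beta-lactamase reporter cells with liver microsomes plus NADPH; % is set by controls: 0 for no effect and ±100 for the full control effect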
# Summary of the method: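 Cells carrying a p53-responsive bla reporter were rested 5 h (37 C, 5% CO2) before compound transfer. Human liver microsomes plus NADPH, 0.5 mg/mL final apiece, supplied metabolism during the 16 h 37 C exposure.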
# [2] = p53 small molecule agonists, cell-based qHTS assay (AID 1963582; active = well fitted activation curve with a large enough effect in the signal ratio in the repeat runs, not every such curve was filed as active; inconclusive = weak or mixed curves; the % refers to the signal ratio; note: potency is the fitted concentration of half-maximal effect); conditions: HCT-116 p53RE-bla reporter, beta-lactamase FRET ratio, 16 h; activation: at 66 µM (top of the series) unless noted
# Summary of the method: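 Agonist activity was scored from beta-lactamase FRET fluorescence in p53RE-bla cells treated 16 h at 37 C with compounds in DMSO, substrate incubation being 2 h at room temperature.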
# [3] = target: 5-hydroxytryptamine receptor 2A (Homo sapiens) (UniProt P28223); assay: 5-hydroxytryptamine receptor 2A (HTR2A) small molecule antagonists, cell-based qHTS assay (AID 1963586); note: nearly all actives have a fitted effect of over 45% in size; note: potency is the fitted concentration of half-maximal effect
# Summary of the method: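 Antagonist-mode intracellular calcium assay: DOI (4 nM) added after 5 min compound pre-incubation at room temperature to dye-loaded HTR2A-CHO cells. Fluorescence followed for 3 min, sampled every second.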
# [4] = target: Muscarinic acetylcholine receptor M1 (Homo sapiens) (UniProt P11229); assay: Cholinergic receptor muscarinic 1 (CHRM1) small molecule antagonists, cell-based qHTS assay (AID 1963588); note: potency is the fitted concentration of half-maximal effect; nearly all actives have a fitted effect of over 40% in size
# Summary of the method: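 CHRM1-CHO calcium-flux assay, antagonist mode. Cells were seeded 18 h, dye-loaded 1 h at 37 C and given compound for 5 min at RT, then acetylcholine was added at 50nM. FDSS fluorescence was read 3 min; 15 concentrations, three runs.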
# [5] = target: D(2) dopamine receptor (Homo sapiens) (UniProt P14416); assay: Dopamine D2 receptor (DRD2) small molecule antagonists, cell-based qHTS assay (AID 1963595; active = well fitted inhibition curve with a large enough effect in the signal ratio in the repeat runs, with a control signal flat; inconclusive = weak or mixed curves, or effect the other way; the % refers to the signal ratio; note: % is set by controls: 0 for no effect and ±100 for the full control effect); conditions: HEK293-DRD2 cAMP HTRF antagonist mode; activity change, negative = inhibition: at 92.4 µM (top of the series) unless noted
# Summary of the method: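 Cells were plated and grown for 24 h at 37 °C. Ro20-1724 (0.1 mM final) went in first, then compound for 10 min. NKH477 (200 nM) with quinpirole (12 nM) followed for 30 min at RT, then HTRF detection reagents for 1 h.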
# [6] = p53 small molecule agonists, cell-based qHTS assay: qHTS cell viability counter screen (AID 1963581); note: nearly all actives have a fitted effect of over 45% in size; note: potency is the fitted concentration of half-maximal effect
# Summary of the method: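 Compounds are pinned onto HCT-116 p53RE-bla cells and left 16 h at 37 C. Following the reporter FRET read, ATP is quantified by CellTiter-Glo luminescence after 30 min at room temperature.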
# [7] = cAMP Responsive Elements (CRE) small molecule agonists, cell-based qHTS assay (AID 1963590); conditions: CRE-bla HEK293T, beta-lactamase FRET ratio, 3 h; activation: at 92.4 µM (top of the series) unless noted; note: potency is the fitted concentration of half-maximal effect; for activation: % is set by controls: 0 for no effect and ±100 for the full control effect
# Summary of the method: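 FRET-based beta-lactamase readout (LiveBLAzer B/G, 2 h RT) quantified CRE activation in HEK 293T CRE-bla cells after 3 h treatment with DMSO-dissolved compounds.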
# [8] = cAMP Responsive Elements (CRE) small molecule antagonists, cell-based qHTS assay (AID 1963591; active = well fitted inhibition curve with a large enough effect in the signal ratio in the repeat runs, not every such curve was filed as active; inconclusive = weak or mixed curves, or effect the other way; the % refers to the signal ratio; note: potency is the fitted concentration of half-maximal effect; for activity change, negative = inhibition: % is set by controls: 0 for no effect and ±100 for the full control effect); conditions: CRE-bla HEK293T, beta-lactamase FRET ratio; activity change, negative = inhibition: at 92.4 µM (top of the series) unless noted
# Summary of the method: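 qHTS in CRE-bla HEK 293T cells: compound in DMSO, then 0.25 uM NKH477 (final), 3 h at 37 °C/5% CO2; beta-lactamase FRET read-out after 2 h substrate incubation.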
# [9] = target: Beta-2 adrenergic receptor (Homo sapiens) (UniProt P07550); assay: Adrenergic beta2 receptor (ADRB2) small molecule agonists, cell-based qHTS assay (AID 1963593); conditions: CHO-ADRB2 cells, cAMP HTRF, 30 min; note: potency is the fitted concentration of half-maximal effect
# Summary of the method: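 CHO cells stably over-expressing ADRB2 were plated overnight at 37C, then dosed with compounds plus a stimulation mix containing 100uM IBMX and 25uM Ro-20-1724 for 0.5hr at room temperature. cAMP was measured by HTRF competition, 1hr.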
# [10] = p53 small molecule agonists, cell-based qHTS assay with human liver microsomes: qHTS cell viability counter screen (AID 1963579); note: % is set by controls: 0 for no effect and ±100 for the full control effect; nearly all actives have a fitted effect of over 45% in size
# Summary of the method: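 Seed p53RE-bla cells at 4,000 per well; incubate 5 h at 37 C; add compound, human liver microsomes and NADPH; incubate 16 h at 37 C; add CellTiter-Glo; after 30 min at room temperature, read luminescence.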
# [11] = target: Beta-2 adrenergic receptor (Homo sapiens) (UniProt P07550); assay: Adrenergic beta2 receptor (ADRB2) small molecule antagonists, cell-based qHTS assay (AID 1963592); conditions: CHO-ADRB2 cells, isoproterenol-stimulated cAMP HTRF ratio, 0.5 h; activity change, negative = inhibition: at 92.4 µM (top of the series) unless noted; note: % is set by controls: 0 for no effect and ±100 for the full control effect; nearly all actives have a fitted effect of over 50% in size
# Summary of the method: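 Cells (CHO, stable ADRB2 overexpression) incubated 18-20hr at 37C; compounds added from DMSO; agonist mix (1nM isoproterenol, 100uM IBMX, 25uM Ro-20-1724) added; 0.5hr RT; d2-cAMP and anti-cAMP-cryptate added; 1hr RT; 665/615 nm read.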
# [12] = target: D(2) dopamine receptor (Homo sapiens) (UniProt P14416); assay: Dopamine D2 receptor (DRD2) small molecule agonists, cell-based qHTS assay (AID 1963594); conditions: HEK293-DRD2 cAMP HTRF, agonist mode, 30 min; activation: at 92.4 µM (top of the series) unless noted; note: potency is the fitted concentration of half-maximal effect; nearly all actives have a fitted effect of over 35% in size
# Summary of the method: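 HEK293 cells stably expressing DRD2 were cultured 24 h at 37 C, then given Ro20-1724 (0.1 mM final) and compounds for 10 min at room temperature. NKH477 (200nM) was then added for 30 min. cAMP was read by HTRF.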
# [13] = p53 small molecule agonists, cell-based qHTS assay with rat liver microsomes: qHTS cell viability counter screen (AID 1963580); note: nearly all actives have a fitted effect of over 45% in size; note: potency is the fitted concentration of half-maximal effect
# Summary of the method: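 p53RE-bla HCT-116 cells (4,000/well) rested 5 h at 37 C, then given Tox21 compounds in DMSO with rat liver microsomes (0.5 mg/mL final) plus NADPH (0.5 mg/mL final) for 16 h at 37 C. Viability read by CellTiter-Glo luminescence after 30 min at room temperature.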
# [14] = activation: at 92.4 µM (top of the series) unless noted
smiles,measurement,setting,value
COc1cc(-c2ccc(N)c(OC)c2)ccc1N,activation,[1],inconclusive: -14.6%
same,Potency,[2],"inconclusive: 38.9 µM [falling, single point]"
same,Potency,[3],"inconclusive: 8.43 µM [inhibitor, single point]"
same,Potency,[4],"inconclusive: 0.0168 µM [inhibitor, full curve, poor fit]"
same,"activity change, negative = inhibition",[5],inconclusive: -4.86% and inconclusive: -15.7% and inconclusive: -15.9%
N#Cc1c[nH]cc1-c1cccc2c1OC(F)(F)O2,Potency,[1],"inconclusive: 45.8 µM [falling, single point]"
same,Potency,[6],"inconclusive: 14.5 µM [rising, partial curve]"
same,Potency,[2],active: 14.5 µM
same,activation,[7],inconclusive: 13.5%
same,Potency,[8],"inconclusive: 68.6 µM [inhibitor, single point]"
same,Potency,[9]; [14],"inconclusive: 2.43 µM [inhibitor, full curve, poor fit]"
O=C(O)COc1ccc(Cl)cc1,Potency,[1],"inconclusive: 10.2 µM [rising, full curve, poor fit]"
same,Potency,[10],inactive
same,Potency,[6],inactive
same,Potency,[3],"inconclusive: 0.942 µM [inhibitor, single point]"
same,Potency,[7],"inconclusive: 30.6 µM [rising, partial curve]"
same,"activity change, negative = inhibition",[8],inconclusive: 15.9%
Nn1cnnc1,Potency,[1],"inconclusive: 36.3 µM [fluorescent, partial curve]"
same,Potency,[6],inactive
same,Potency,[11],inactive
same,activation,[9]; [14],inconclusive: -3.15%
same,activation,[9]; at 92.4 µM (top of the series),inactive: -3.67%
same,"activity change, negative = inhibition",[5],inconclusive: -2.49%
[Cl][Sb]([Cl])[Cl],Potency,[1],"inconclusive: 18.2 µM [falling, single point]"
same,Potency,[2],inactive
CN=CNc1ccc(C)cc1C,Potency,[1],inactive
same,Potency,[6],"inconclusive: 10.2 µM [cytotoxic, single point]"
same,"activity change, negative = inhibition",[5],inconclusive: 12.1%
CO/N=C(/C1=NOCCO1)c1ccccc1Oc1ncnc(Oc2ccccc2Cl)c1F,Potency,[1],"inconclusive: 40.8 µM [rising, partial curve, poor fit]"
same,Potency,[6],"inconclusive: 40.8 µM [cytotoxic, single point]"
same,Potency,[2],"inconclusive: 1.62 µM [rising, partial curve]"
same,Potency,[3],"inconclusive: 3.75 µM [inhibitor, partial curve, poor fit]"
same,activation,[7],inconclusive: 14%
same,activation,[9]; [14],inconclusive: -1.64%
same,Potency,[12],"inconclusive: 34.3 µM [falling, partial curve, poor fit]"
Clc1ccc(C(Cl)(Cl)Cl)cn1,Potency,[1],inactive
same,Potency,[6],inactive
same,Potency,[9]; [14],inactive
CC(C)C(=O)OCC(C)(C)C(OC(=O)C(C)C)C(C)C (stereo not drawn),Potency,[1],"inconclusive: 51.3 µM [fluorescent, single point]"
same,Potency,[13],"inconclusive: 0.921 µM [cytotoxic, single point]"
same,Potency,[2],inactive
same,Potency,[3],inactive
same,Potency,[7],inactive
same,Potency,[9]; [14],"inconclusive: 69.1 µM [activator, single point]"
same,"activity change, negative = inhibition",[5],inconclusive: -1.06%
CC(Cc1ccc2c(c1)OCO2)NO (stereo not drawn),Potency,[1],"inconclusive: 0.197 µM [rising, partial curve, poor fit]"
same,Potency,[13],inactive
same,Potency,[3],active: 0.91 µM
CN1COCN(Cc2cnc(Cl)s2)/C1=N\[N+](=O)[O-],Potency,[1],"inconclusive: 25.7 µM [fluorescent, partial curve]"
same,Potency,[13],inactive
same,Potency,[9]; [14],inactive
Cc1cc2c3c(c1)C(c1ccccc1)=N[C@@H](NC(=O)c1ccncc1)C(=O)N3CC2,Potency,[1],"inconclusive: 45.8 µM [rising, partial curve]"
same,Potency,[10],inactive
same,Potency,[6],"inconclusive: 32.4 µM [rising, partial curve, poor fit]"
same,Potency,[7],inconclusive: 48.6 µM [activator]
same,Potency,[8],"inconclusive: 48.6 µM [activator, partial curve, poor fit]"
same,Potency,[9]; [14],inconclusive: 9.69 µM [inhibitor]
same,Potency,[12],"inconclusive: 2.73 µM [falling, full curve, poor fit]"

# Part of the list above, reformatted:
smiles	measurement	setting	value
Nn1cnnc1	Potency	[11]	inactive
same	activation	[9]; [14]	inconclusive: -3.15%
same	activation	[9]; at 92.4 µM (top of the series)	inactive: -3.67%
